Experimental data as given in patent publication US9409939B2, “Quantification method for remaining liver function and novel liver receptor imaging agent” (INSTITUTE OF NUCLEAR ENERGY RESEARCH ATOMIC ENERGY COUNCIL, …, priority 2009, dated 2016).
Part of at least one peptide drawing is inferred or uncertain, most often the ends.

Target: T1, ASGPR (Mus musculus, UniProt P24721+P34927)
T1 construct: host or cells: murine hepatocytes (purchased, plated in 24-well plates)
T1 sequence (P34927 1-284): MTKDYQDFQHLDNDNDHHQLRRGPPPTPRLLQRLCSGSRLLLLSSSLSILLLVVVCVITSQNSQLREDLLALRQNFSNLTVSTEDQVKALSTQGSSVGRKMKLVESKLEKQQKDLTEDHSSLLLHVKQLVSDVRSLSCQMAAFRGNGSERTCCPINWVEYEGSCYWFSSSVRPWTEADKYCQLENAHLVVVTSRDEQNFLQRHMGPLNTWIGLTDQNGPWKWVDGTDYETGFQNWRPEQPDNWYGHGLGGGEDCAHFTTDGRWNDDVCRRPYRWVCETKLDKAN
T1 sequence (P24721 1-301): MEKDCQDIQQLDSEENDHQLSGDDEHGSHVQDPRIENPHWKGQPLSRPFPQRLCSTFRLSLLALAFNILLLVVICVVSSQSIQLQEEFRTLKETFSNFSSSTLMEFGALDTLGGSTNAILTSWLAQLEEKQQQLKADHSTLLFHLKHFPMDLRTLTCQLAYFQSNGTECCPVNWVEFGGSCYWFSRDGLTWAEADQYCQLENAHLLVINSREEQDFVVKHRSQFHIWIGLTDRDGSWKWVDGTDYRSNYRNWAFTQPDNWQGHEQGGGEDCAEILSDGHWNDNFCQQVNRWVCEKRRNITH
Experiment: Competition with Eu-ASOR for binding to murine hepatocyte (time-resolved fluorescence)
Method: The murine hepatocyte (from Lonza Biotechnology Company, Maryland) is plated in a 24-well plate in advance, and the reaction occurs in each well, into which (i) Eu-ASOR 10 nM (ii) hepatocyte basic medium with 5 mM calcium chloride, and (iii) five different concentrations of saccharide chain peptide of 1 uM-0.8 nM are added. After culturing with shaking for 1 hr, the substance that has not been bound to hepatocyte is removed by washing with the hepatocyte basic medium containing calcium chloride.
Time-resolved fluorescence spectroscopy is preformed, that is, an enhancement solution (15 uM β-naphthoyl trifluoroacetone, 50 uM tri-n-octyl-phosphine oxide, 0.1% triton X-100 in 0.1M acetic acid, titrated with potassium hydrogen phthalate to pH 3.2) is added. The enhancement solution reacts with Eu^3+ to form a Eu chelate, which can emit a light of 615 nm when being excited at 340 nm. With the logarithm of the concentration of saccharide chain peptide as X axis, the emitted fluorescence value as Y axis, the fluorescence value without adding glycopeptide being set as 100%, the IC50 of each saccharide chain peptide can be calculated accordingly.

NCCCCCC(=O)N[C@@H](CC(=O)NCCCC[C@@H](C(=O)NCCCCCCOC1O[C@H](CO)[C@@H](O[C@@H]2O[C@H](CO)[C@H](O)[C@H](O)[C@H]2O)[C@H](O)[C@H]1O)N(CC(=O)NCCCCCCOC1O[C@H](CO)[C@@H](O[C@@H]2O[C@H](CO)[C@H](O)[C@H](O)[C@H]2O)[C@H](O)[C@H]1O)CC(=O)NCCCCCCOC1O[C@H](CO)[C@@H](O[C@@H]2O[C@H](CO)[C@H](O)[C@H](O)[C@H]2O)[C@H](O)[C@H]1O)C(=O)NCCCC[C@@H](C(=O)NCCCCCCOC1O[C@H](CO)[C@@H](O[C@@H]2O[C@H](CO)[C@H](O)[C@H](O)[C@H]2O)[C@H](O)[C@H]1O)N(CC(=O)NCCCCCCOC1O[C@H](CO)[C@@H](O[C@@H]2O[C@H](CO)[C@H](O)[C@H](O)[C@H]2O)[C@H](O)[C@H]1O)CC(=O)NCCCCCCOC1O[C@H](CO)[C@@H](O[C@@H]2O[C@H](CO)[C@H](O)[C@H](O)[C@H]2O)[C@H](O)[C@H]1O (stereo partly shown) [AHA-Asp[DCM-Lys(ahLac)3]2, AHA-Asp[DCM-Lys(ah-Lac)3]2]
binding strength to ASGPR compared with YEE or YDD: same binding strength as that of YEE or YDD
